Results: article doi:10.1101/2025.02.28.640611
Construct, isoform or probe ends are uncertain for at least one entry. Results from cells or extracts need not show a direct contact. For some assays here: Negatives hold for the conditions tested.

Assays:
[1] = system: ComX (competence alternative sigma factor); assay: pull-down; conditions: protein in an extract
[2] = system: Sig42 (primary sigma factor); assay: EMSA; conditions: pull-down fraction of heat-treated cells; protein in an extract
[3] = system: Sig42 (primary sigma factor); assay: pull-down; conditions: protein in an extract

## TTTATATCTCCTTTTTTTGATTATAATTAGTATACTATTTTTTATGAAAAAATCATGGATTTTCTTGAAAAAGTAATATTTTCCTTAGGACACATAATGTAAAATTAGCTGGTAATGATAGTTTCAGAACATCAAAAATGACCGTTTAGGACAAAATAGCTACCATTTAGGATATTTTGCTCCATTTTGAAAATAAATTGTTATACTAGAGATGTCGGTTGCGCAGCCAGACAAAAAACTAAAAATGGGGAAGGGGTATTTATCAT (double strand) [Pr-cipB promoter, biotinylated]
[1]; lysate of +/+ population
  binding result: binds
[1]; lysate of +/- population
  binding result: binds
[1]; lysate of -/- population
  binding result: no binding

## GGGTTAAGCAGCAATATTTACCAGACAAACTCAAAGGAGCTAACTATTTTACTGCCAATGAAACAGGTAAATACGAACGGGCACTGGGGGCTAACAAAGACAAGATTGATAAACTTTCATAATGATGCCCTTTATAAAAAATGGATTTTTAACTTGAATTTTTTTAACATTATGGTATCATATTTAAAGAAGAATTGCTGT (double strand) [Pr-6S RNA promoter, biotinylated]
[1]; lysates of heat- or NaF-treated cells
  binding result: binds

## GTTAGTAAAAAGGCACAATTTCTGTGTCTTTTTACCGTTTAGGACAAAATTGCTACCATTTGGGATTTTTGACTCCGTTAGAGGATATTTTCTGTTATACTAAGAATATCTTTATGTTATTAATAAGGAAAGCCTA (double strand) [Pr-cipI promoter, Cy5]
[2]
  binding result: binds

## GTTAGTAAAAAGGCACAATTTCTGTGTCTTTTTACCGTTTAGGACAAAATTGCTACCATTTGGGATTTTTGACTCCGTTAGAGGATATTTTCTGTTATACTAAGAATATCTTTATGTTATTAATAAGGAAAGCCTA (double strand) [Pr-cipI promoter, biotinylated]
[3]; lysate of +/+ population
  binding result: no binding
[3]; lysate of +/- population
  binding result: binds
[3]; lysate of -/- population
  binding result: binds
